A: 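ClpP1P2, Mycobacterium tuberculosis (UniProt P9WPC5 and UniProt P9WPC3). Protease assay of ClpP1P2, read by the AMC dye that it sets free. Tested at 50 µM. Direction is inferred from only a few compounds that gave an IC50; most scored high, so higher reads as stronger inhibition. Most other retested compounds had strongly negative values. Of about 69,000 compounds tested this way, about 10 (0.015%) reached 50% or more in at least one test.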
B: 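Histidine-tRNA ligase, Leishmania infantum (UniProt A4I591). Enzyme assay of histidyl-tRNA synthetase; the read-out is not stated. Concentration: 30 µM. The record gives no direction; compounds that gave an IC50 in retests scored well above the rest, so higher reads as stronger inhibition. The assay is labelled LdHisRS but filed under L. infantum. Size under these conditions: about 69,000 compounds, about 410 of them at 50% or above in at least one test.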

Amino acid sequences for entries named in this document (tags omitted). Residues count along the entry.
UniProt P9WPC5, whole entry: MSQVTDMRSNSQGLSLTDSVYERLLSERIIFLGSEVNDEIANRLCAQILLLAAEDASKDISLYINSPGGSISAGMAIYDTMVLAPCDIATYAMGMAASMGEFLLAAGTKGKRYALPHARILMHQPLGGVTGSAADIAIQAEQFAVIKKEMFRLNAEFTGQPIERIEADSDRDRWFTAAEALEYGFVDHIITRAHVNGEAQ
UniProt P9WPC3, whole entry partner: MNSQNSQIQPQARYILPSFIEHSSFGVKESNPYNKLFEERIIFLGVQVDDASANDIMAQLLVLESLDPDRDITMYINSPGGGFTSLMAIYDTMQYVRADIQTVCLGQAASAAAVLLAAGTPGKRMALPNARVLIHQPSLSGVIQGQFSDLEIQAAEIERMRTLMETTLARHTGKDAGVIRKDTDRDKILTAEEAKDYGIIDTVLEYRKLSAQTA
UniProt A4I591, 1-473: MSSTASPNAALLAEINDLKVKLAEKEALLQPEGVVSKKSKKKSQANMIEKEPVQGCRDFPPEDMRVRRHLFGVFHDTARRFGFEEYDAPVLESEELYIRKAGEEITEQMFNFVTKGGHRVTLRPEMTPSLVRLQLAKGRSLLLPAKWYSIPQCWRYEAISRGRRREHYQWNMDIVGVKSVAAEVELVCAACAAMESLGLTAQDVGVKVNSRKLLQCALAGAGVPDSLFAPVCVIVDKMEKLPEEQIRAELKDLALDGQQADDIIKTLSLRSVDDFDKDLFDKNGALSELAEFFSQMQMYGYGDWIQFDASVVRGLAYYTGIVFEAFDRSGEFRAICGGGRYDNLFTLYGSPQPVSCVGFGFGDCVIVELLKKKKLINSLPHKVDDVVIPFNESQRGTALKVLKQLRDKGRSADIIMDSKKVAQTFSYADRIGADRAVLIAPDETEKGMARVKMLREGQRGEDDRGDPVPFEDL

The filed quantity is “Percent Effect” (%). The record does not define 0% and 100%; most values in the screen are far below 50% and negative numbers occur (in some assays of this library far below -100). Compounds were drawn at random from those tested, without regard to their results.

{"structure": "Cc1cc(NCCC(=O)NC2CCCC2)nc(-c2ccncc2)n1", "A": -4.504, "B": 7.08}
{"structure": "Cc1nc(N2CCC(C)CC2)ncc1-c1cc(O)nc(N2CCCC2)n1", "A": -9.089, "B": 0}
{"structure": "CS(=O)(=O)c1cccc(C(=O)NCC2Cc3ccccc3O2)c1", "stereo": "stereo not shown", "A": -2.33, "B": 14.52}
{"structure": "COc1ccc(CN2CC[C@H]3CO[C@H](CNC(=O)N(C)C)[C@H]3C2)cc1", "A": 0.497, "B": 0}
{"structure": "COC(=O)c1cc(C(=O)N2CCOCC2(C)C)n(-c2ccccc2)n1", "A": 6.808, "B": 16.8}
{"structure": "CC(C)c1nc(C2CCCN(Cc3nnc(C4CC4)o3)C2)no1", "stereo": "stereo not shown", "A": -2.489, "B": 4.054}
{"structure": "CN1CCOC(CN(C(=O)CCc2cnn(C)c2)c2nccs2)C1", "stereo": "stereo not shown", "A": -11.29, "B": 10.71}
{"structure": "CN(C)C(=O)CN(C)C(=O)c1cccn1CCc1ccccc1", "A": -7.948, "B": 10}
{"structure": "CC(=O)N1[C@H](CN(C)C)C[C@@H]2CN(C(=O)c3occc3C)CC[C@@H]21", "A": 7.32, "B": 11.54}
{"structure": "O=C(NCc1nncn1C1CC1)C1(c2cccc(F)c2)CCOCC1", "A": -9.207, "B": 4.167}
{"structure": "CC(C)c1ncc(C(=O)N(C)c2ccc(Br)cn2)s1", "A": -15.68, "B": 9.589}
{"structure": "Fc1ccc(C2CCCN2Cc2nnnn2C2CC2)cc1", "stereo": "stereo not shown", "A": -1.971, "B": 13.58}
{"structure": "CN(C)c1cc2c(nn1)CCN(C(=O)c1cc3ccccc3o1)C2", "A": -2.309, "B": 17.54}
{"structure": "c1ccc(Cc2noc(CN3CCc4cncnc4C3)n2)cc1", "A": -28.2, "B": 42.98}
{"structure": "CN(C)CCOCC1CN(C(=O)c2cccn2C)Cc2ccnn2C1", "stereo": "stereo not shown", "A": 3.989, "B": 0}
{"structure": "Cc1cc(N(C)C)nc(C2CCNC2)n1", "stereo": "stereo not shown", "A": -0.05114, "B": 9.929}
{"structure": "CN(C)c1cc(C(F)(F)F)nc(N2CCCC2c2ccccn2)n1", "stereo": "stereo not shown", "A": 2.658, "B": 22.45}
{"structure": "CCc1cc(NC2CCOCC2)n2nc(C)c(C)c2n1", "A": -15.95, "B": 11.11}
{"structure": "Cc1cc(C[S+]([O-])Cc2ccccc2F)on1", "stereo": "stereo not shown", "A": -1.546, "B": 14.16}
{"structure": "NC(=O)c1ccc(OCCC(=O)NC2CCc3c(F)cccc32)cc1", "stereo": "stereo not shown", "A": -0.6781, "B": -4.167}
{"structure": "CCn1c(C)nnc1CN(C)C1CCN(Cc2nnc(C3CC3)o2)C1", "stereo": "stereo not shown", "A": 5.939, "B": 8.929}
{"structure": "O=C(CCc1ccccc1F)N1CCCC(OCc2cccnc2)C1", "stereo": "stereo not shown", "A": -20.77, "B": 20}
{"structure": "Fc1cc(CNc2nncs2)ccc1Cl", "A": -6.489, "B": 22.08}
{"structure": "COCCCSc1ccc(NCc2scnc2C)cc1", "A": -11.83, "B": 9.091}
{"structure": "CN(C)C(=O)[C@@H]1C[C@H]2OCC[C@H]2N(CCOc2ccc(Cl)cc2)C1", "A": -6.364, "B": 27.63}
{"structure": "COC(=O)N1CCCCC1C(=O)N1CCN(c2cccnc2)CC1", "stereo": "stereo not shown", "A": 3.255, "B": 7.752}
{"structure": "Cc1cnc(N2CCC3(CCN(CC4CC4)C3=O)CC2)nc1", "A": 12.6, "B": 21.95}
{"structure": "CN(C)C(=O)N1CCN(C(=O)c2ccn3cncc3c2)CC1", "A": -88.05, "B": 14.46}

2 of the entries, repeated:

* Cc1cc(C[S+]([O-])Cc2ccccc2F)on1 (stereo not shown) : A: -1.546%; B: 14.16%
* Fc1cc(CNc2nncs2)ccc1Cl : A: -6.489%; B: 22.08%

Measurements from “University of Dundee, Small-Polar-MMV Screening Library” (2021), ChEMBL document CHEMBL3988442.